Taken from: PubChem BioAssay AID1671195 (Yale University, 2021)
Assay: 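Knockdowns that increase or decrease uptake of fluorescent LDL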 (primary screen). System: human Huh7 hepatoma cells. Reagent: siRNA pool against human genes, 18 nM. Timing: about 2 to 2.5 days of knockdown, then 8 h LDL uptake. Treatment: DiI-labelled LDL at 30 µg/ml for 8 h, in lipoprotein-deficient serum medium. Detection: 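Fluorescent LDL signal imaged in cells, scaled to the plate median, robust z-score for each replicate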. Reading the numbers: robust z-score: higher = more LDL uptake after knockdown. Rule for the call: 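a gene counts as active if at least two replicate z-scores exceed ±2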.
The deposit covers about 22,000 reagents; shown is a part drawn at random. About 1,510 of them (6.9%) were called active. 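Active includes knockdowns raising or lowering LDL uptake; positive z-scores mean more uptake, negative mean less.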 A number with no mark means an inactive call. Reagents against one gene are numbered here.

gene | pool no. | robust z-score, replicate 1 | robust z-score, replicate 2 | robust z-score, replicate 3
APBA3 (GeneID 9546) | 1 | 0.107 | -0.32 | -0.455
PKLR (GeneID 5313) | 1 | 0.941 | 0.776 | -0.129
MCCC2 (GeneID 64087) | 1 | 2.49 (active) | 0.017 | 2.11
PGLYRP4 (GeneID 57115) | 1 | -0.193 | -0.12 | -0.462
ATP6V0C (GeneID 527) | 1 | -0.917 | -1.03 | -1.07
LRRC37A5P (GeneID 652972) | 1 | -1.38 | -1.21 | -2.43
DDIAS (GeneID 220042) | 1 | -0.44 | -0.592 | -0.316
C16orf54 (GeneID 283897) | 1 | 0.52 | 0.745 | 0.514
UBAP1 (GeneID 51271) | 1 | -0.624 | -0.38 | -0.522
UCKL1 (GeneID 54963) | 1 | 0.117 | 3.5 | -0.322
METTL9 (GeneID 51108) | 1 | -0.412 | 2.1 | 1.25
LOC401020 (retired record) (GeneID 401020) | 1 | -0.173 | -0.376 | 0.437
RAD54L2 (GeneID 23132) | 1 | 0.163 | 0.245 | 0.52
FGG (GeneID 2266) | 1 | 1.89 | -0.32 | 0.31
LINC01226 (GeneID 284551) | 1 | -0.925 | -0.975 | -0.9
HBM (GeneID 3042) | 1 | 2.69 | -0.323 | -2.67
GBA3 (GeneID 57733) | 1 | 0.432 | 0.478 | 1.05
H2AZ1 (GeneID 3015) | 1 | 0.115 | -0.287 | 0.033
ZNF355P (GeneID 100505852) | 1 | -0.172 | 0.0827 | -0.27
C17orf67 (GeneID 339210) | 1 | 0.245 | 0.11 | -0.168
OBSCN (GeneID 84033) | 1 | -0.107 | 0.0983 | 0.675
OBSCN (GeneID 84033) | 2 | -0.185 | 0.0461 | 0.0707
LINC00908 (GeneID 284276) | 1 | -1.01 | -1.16 | -1.1
ESPNL (GeneID 339768) | 1 | 0.242 | 0.376 | 0.0552
PAFAH1B2 (GeneID 5049) | 1 | 1 | 1.64 | 0.953
DAPK1 (GeneID 1612) | 1 | -0.373 | -1.25 | -0.536
LOC388752 (retired record) (GeneID 388752) | 1 | 1.71 | 0.837 | 1.21
TBC1D13 (GeneID 54662) | 1 | 0.244 | 1.2 | 0.226
R3HCC1 (GeneID 203069) | 1 | 1.13 | 0.499 | 0.944
DSCR8 (GeneID 84677) | 1 | 3.29 (active) | 2.05 | 3.09
ZAR1 (GeneID 326340) | 1 | -0.584 | -0.681 | -0.647
PHOX2A (GeneID 401) | 1 | 0.211 | -0.463 | 0.89
ASB18 (GeneID 401036) | 1 | -0.964 | -1.21 | -1.07
LOC442665 (retired record) (GeneID 442665) | 1 | -2.17 (active) | -2.18 | -1.79
VWA5B2 (GeneID 90113) | 1 | -0.0978 | -0.106 | 0.136
FKBP11 (GeneID 51303) | 1 | 0.554 | 1.39 | 0.157
LOC440065 (retired record) (GeneID 440065) | 1 | 1.27 | 1.29 | 1.41
OR1A1 (GeneID 8383) | 1 | -1.06 | -0.4 | -1.57

In a second layout: 8 of the entries above.
{"gene":"OBSCN (GeneID 84033)","pool no.":1,"robust z-score, replicate 1":-0.107,"robust z-score, replicate 2":0.0983,"robust z-score, replicate 3":0.675}
{"gene":"OBSCN (GeneID 84033)","pool no.":2,"robust z-score, replicate 1":-0.185,"robust z-score, replicate 2":0.0461,"robust z-score, replicate 3":0.0707}
{"gene":"LINC00908 (GeneID 284276)","pool no.":1,"robust z-score, replicate 1":-1.01,"robust z-score, replicate 2":-1.16,"robust z-score, replicate 3":-1.1}
{"gene":"ESPNL (GeneID 339768)","pool no.":1,"robust z-score, replicate 1":0.242,"robust z-score, replicate 2":0.376,"robust z-score, replicate 3":0.0552}
{"gene":"PAFAH1B2 (GeneID 5049)","pool no.":1,"robust z-score, replicate 1":1,"robust z-score, replicate 2":1.64,"robust z-score, replicate 3":0.953}
{"gene":"DAPK1 (GeneID 1612)","pool no.":1,"robust z-score, replicate 1":-0.373,"robust z-score, replicate 2":-1.25,"robust z-score, replicate 3":-0.536}
{"gene":"LOC388752 (retired record) (GeneID 388752)","pool no.":1,"robust z-score, replicate 1":1.71,"robust z-score, replicate 2":0.837,"robust z-score, replicate 3":1.21}
{"gene":"TBC1D13 (GeneID 54662)","pool no.":1,"robust z-score, replicate 1":0.244,"robust z-score, replicate 2":1.2,"robust z-score, replicate 3":0.226}

More records:
gene | pool no. | robust z-score, replicate 1 | robust z-score, replicate 2 | robust z-score, replicate 3
LOC439970 (retired record) (GeneID 439970) | 1 | 1.18 | 0.654 | 0.578
SDF4 (GeneID 51150) | 1 | -1.7 | -1.64 | -1.87
MED26 (GeneID 9441) | 1 | -0.856 | -0.614 | -0.75
RBM22P1 (GeneID 400645) | 1 | 0.869 | 0.712 | 0.579
CACNA1S (GeneID 779) | 1 | -1.22 | -0.58 | -1.35
FAM135B (GeneID 51059) | 1 | 0.979 | 1.57 | -1.88
LOC388334 (retired record) (GeneID 388334) | 1 | -1.71 | -1.54 | -1.33
CRHR2 (GeneID 1395) | 1 | -1.84 | -0.75 | -1.32
LOC400688 (retired record) (GeneID 400688) | 1 | -0.0598 | 0.0684 | -0.167
AMER1 (GeneID 139285) | 1 | -1.27 | -0.4 | 0.256
LOC391730 (retired record) (GeneID 391730) | 1 | 0.129 | -0.254 | -0.272
USP53 (GeneID 54532) | 1 | 0.693 | -0.128 | -0.0782
USP53 (GeneID 54532) | 2 | -1.08 | -1.07 | -1.27
NUP210L (GeneID 91181) | 1 | 4.03 (active) | 1.31 | 4.38
OR4K17 (GeneID 390436) | 1 | -0.42 | -0.664 | -0.694
LCN6 (GeneID 158062) | 1 | -0.395 | -0.444 | -0.312
SOX4 (GeneID 6659) | 1 | 0.539 | 0.396 | -0.399
ZNF714 (GeneID 148206) | 1 | -2.33 (active) | -1.6 | -2.14
PPP1R3C (GeneID 5507) | 1 | 1.58 | 0.861 | 1
COG6 (GeneID 57511) | 1 | 4.48 (active) | 4.38 | 2.33
HSPC047 (retired record) (GeneID 29060) | 1 | 0.514 | 1.04 | 1.1
EDN1 (GeneID 1906) | 1 | 0.439 | 0.0356 | -0.0695
HSP90AB2P (GeneID 391634) | 1 | 1.19 | 0.689 | 1.41
ANO7L1 (GeneID 101927546) | 1 | 1.71 | 1 | 1.45
CPLX3 (GeneID 594855) | 1 | -0.328 | 0.165 | -0.489
LOC401937 (retired record) (GeneID 401937) | 1 | -0.785 | -0.51 | -0.068
ZNF451 (GeneID 26036) | 1 | 0.0468 | -0.0232 | 0.415
PKD1L3 (GeneID 342372) | 1 | 0.448 | 0.805 | 0.843
NAPA (GeneID 8775) | 1 | 1.33 | 1.69 | 3.06
RPRD1A (GeneID 55197) | 1 | -0.208 | -1.81 | 0.337
